According to publication PMC5044832:
These are yes or no findings as the source states them, for the method shown. In cells and extracts the contact can be indirect. Tags and fused reporters may be left off the sequences shown.

Sequences of proteins named here, by UniProt entry; tags and fusion partners are left off.
UniProt F5HCV3: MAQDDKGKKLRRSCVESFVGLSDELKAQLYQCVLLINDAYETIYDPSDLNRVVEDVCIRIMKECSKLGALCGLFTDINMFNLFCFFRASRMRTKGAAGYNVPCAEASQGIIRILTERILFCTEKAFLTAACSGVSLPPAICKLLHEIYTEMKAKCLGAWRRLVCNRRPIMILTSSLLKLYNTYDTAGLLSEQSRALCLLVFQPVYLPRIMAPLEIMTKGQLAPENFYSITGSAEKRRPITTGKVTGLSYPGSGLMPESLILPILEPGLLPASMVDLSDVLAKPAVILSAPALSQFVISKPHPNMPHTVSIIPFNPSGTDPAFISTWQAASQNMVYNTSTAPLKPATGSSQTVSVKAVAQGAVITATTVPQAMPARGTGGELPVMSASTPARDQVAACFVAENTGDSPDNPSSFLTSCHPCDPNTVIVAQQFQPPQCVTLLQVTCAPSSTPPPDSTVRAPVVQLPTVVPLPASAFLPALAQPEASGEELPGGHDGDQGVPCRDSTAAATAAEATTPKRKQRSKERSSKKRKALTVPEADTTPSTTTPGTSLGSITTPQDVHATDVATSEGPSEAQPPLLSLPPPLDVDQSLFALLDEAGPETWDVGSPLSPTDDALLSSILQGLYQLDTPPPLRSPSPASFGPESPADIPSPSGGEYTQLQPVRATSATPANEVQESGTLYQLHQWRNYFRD

Molecular target: replication and transcription activator (RTA) (Kaposi's sarcoma-associated herpesvirus (KSHV)) (UniProt F5HCV3)
Assay: co-IP

B1: AT-rich interacting domain containing 3B (ARID3B), C-terminally FLAG-tagged (protein, UniProt Q8IVW6 1-561)
chain: MEPLQQQQQQQQQQQKQPHLAPLQMDAREKQGQQMREAQFLYAQKLVTQPTLLSATAGRPSGSTPLGPLARVPPTAAVAQVFERGNMNSEPEEEDGGLEDEDGDDEVAEVAEKETQAASKYFHVQKVARQDPRVAPMSNLLPAPGLPPHGQQAKEDHTKDASKASPSVSTAGQPNWNLDEQLKQNGGLAWSDDADGGRGREISRDFAKLYELDGDPERKEFLDDLFVFMQKRGTPINRIPIMAKQILDLYMLYKLVTEKGGLVEIINKKIWREITKGLNLPTSITSAAFTLRTQYMKYLYAYECEKKALSSPAELQAAIDGNRREGRRPSYSSSLFGYSPAAATAAAAAGAPALLSPPKIRFPILGLGSSSGTNTSSPRISPATTLRKGDGAPVTTVPVPNRLAVPVTLASQQAGTRTAALEQLRERLESGEPAEKKASRLSEEEQRLVQQAFQRNFFSMARQLPMKIRINGRAEDRAEASAAALNLTTSSIGSINMSVDIDGTTYAGVLFAQKPVVHLITGSAPQSLGSSASSSSSSHCSPSPTSSRGTPSAEPSTSWSL
- binding: no binding
